Assay results reported in patent publication US10828372B2, “Compositions and methods for the inhibition of fibrosis” (WISCONSIN ALUMNI RESEARCH FOUNDATION, priority 2017, dated 2020).

Tested on: human plasma FN
Assay: Isothermal Titration calorimetry (ITC) of peptide binding to fibronectin
Conditions: pH 7.4 PBS, 25° C.
Procedure: Isothermal Titration calorimetry (ITC): ITC experiments were performed using a VP-ITC microcalorimeter (MicroCal, LLC) with a cell volume of 2.2 mL. In a typical experiment, the cell was filled with 1.4 mL of 2 μM human plasma FN and the syringe was filled with 1 mL of 28 μM FUD or PEG-FUD peptides. The temperature was set to 25° C. The titration experiment was performed in 39 injections (1×1, 4×4, and 34×8 μL) delivered in 120 sec intervals. Prior to injection, both FN and the peptides were dialyzed in separate dialysis bags overnight into the same PBS buffer (pH 7.4) solution. Routine analysis involved discarding of the first data point and subtraction of peptide into PBS buffer control run. Data were fit using one set of sites model Lavenberg-Marquardt nonlinear regression in Origin 7.0.
The binding of 10 kDa, 20 kDa, and 40 kDa PEG-FUD to FN was studied using Isothermal Titration calorimetry (ITC). This technique was used to determine the thermodynamic parameters as well as the binding constant (Kd) of the interaction. The peptide was injected into a human plasma FN solution in PBS at pH 7.4 and 25° C. in triplicate runs. […] A Kd of 6 (±3) nM was detected for FUD:FN. […] Similar entropy change of −65 (±3) cal/mol, −74 (±7) cal/mol, −66 (±7) cal/mol, and −73 (±2) and enthalpy change of −31 (±1) kcal/mol, −34 (±2) kcal/mol, −30 (±1) kcal/mol, and −32.5 (±0.5) kcal/mol were detected for the interaction of FUD and 10 kDa, 20 kDa, and 40 kDa PEG-FUD with FN, respectively. […] This observation is contrary to the expectation of PEG attachment diminishing a drug's affinity for its binding partner and presents an unexpected but desired feature of the PEG-FUD peptide.

| Substance | entropy change | ΔH [kcal/mol] | ΔS [kcal/mol] |
| --- | --- | --- | --- |
| 10 kDa PEG-FUD: FUD N-terminally mono-PEGylated with 10 kDa linear methoxy-PEG propionaldehyde (KDQSPLAGESGETEYITEVYGNQQNPVDIDKKLPNETGFSGNMVETEDT) | −74 (±7) cal/mol | -34 | -0.074 |
| 20 kDa PEG-FUD: FUD N-terminally mono-PEGylated with 20 kDa linear methoxy-PEG propionaldehyde (KDQSPLAGESGETEYITEVYGNQQNPVDIDKKLPNETGFSGNMVETEDT) | −66 (±7) cal/mol | -30 | -0.066 |
| FUD: 49 amino acid FUD peptide, SEQ ID NO: 1, recombinantly expressed, His-tag removed; inhibitor of fibronectin fibrillogenesis (KDQSPLAGESGETEYITEVYGNQQNPVDIDKKLPNETGFSGNMVETEDT; human) [reference compound] | −65 (±3) cal/mol | -31 | -0.065 |
| 40 kDa PEG-FUD: FUD N-terminally mono-PEGylated with 40 kDa branched methoxy-PEG propionaldehyde (KDQSPLAGESGETEYITEVYGNQQNPVDIDKKLPNETGFSGNMVETEDT) | −73 (±2) cal/mol | -32.5 | -0.073 |
